From PMC8415483
These are yes or no findings as the source states them, for the method shown. In cells and extracts the contact can be indirect. A yes stands for co-enrichment or nearness to the bait. Other partners may have been found.

The chains behind the UniProt entries cited, without tags or fusion partners.
UniProt P25098: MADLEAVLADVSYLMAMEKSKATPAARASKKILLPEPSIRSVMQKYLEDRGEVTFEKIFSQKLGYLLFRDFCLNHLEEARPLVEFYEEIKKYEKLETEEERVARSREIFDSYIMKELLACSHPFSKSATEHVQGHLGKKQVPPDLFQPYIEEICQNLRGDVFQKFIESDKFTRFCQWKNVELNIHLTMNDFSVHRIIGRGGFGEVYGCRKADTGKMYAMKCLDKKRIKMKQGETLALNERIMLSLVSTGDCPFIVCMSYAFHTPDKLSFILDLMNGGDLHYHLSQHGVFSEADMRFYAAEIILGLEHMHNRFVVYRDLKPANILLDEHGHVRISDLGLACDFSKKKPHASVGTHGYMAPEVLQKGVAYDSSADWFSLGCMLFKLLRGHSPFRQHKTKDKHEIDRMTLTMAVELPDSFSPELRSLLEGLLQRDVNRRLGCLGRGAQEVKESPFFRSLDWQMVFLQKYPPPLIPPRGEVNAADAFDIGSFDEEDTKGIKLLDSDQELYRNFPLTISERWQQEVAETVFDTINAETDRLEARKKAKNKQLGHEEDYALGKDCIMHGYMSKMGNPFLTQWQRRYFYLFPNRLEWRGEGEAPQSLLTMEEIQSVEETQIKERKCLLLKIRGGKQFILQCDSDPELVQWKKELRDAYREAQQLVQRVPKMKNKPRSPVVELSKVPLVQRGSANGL
UniProt P35626: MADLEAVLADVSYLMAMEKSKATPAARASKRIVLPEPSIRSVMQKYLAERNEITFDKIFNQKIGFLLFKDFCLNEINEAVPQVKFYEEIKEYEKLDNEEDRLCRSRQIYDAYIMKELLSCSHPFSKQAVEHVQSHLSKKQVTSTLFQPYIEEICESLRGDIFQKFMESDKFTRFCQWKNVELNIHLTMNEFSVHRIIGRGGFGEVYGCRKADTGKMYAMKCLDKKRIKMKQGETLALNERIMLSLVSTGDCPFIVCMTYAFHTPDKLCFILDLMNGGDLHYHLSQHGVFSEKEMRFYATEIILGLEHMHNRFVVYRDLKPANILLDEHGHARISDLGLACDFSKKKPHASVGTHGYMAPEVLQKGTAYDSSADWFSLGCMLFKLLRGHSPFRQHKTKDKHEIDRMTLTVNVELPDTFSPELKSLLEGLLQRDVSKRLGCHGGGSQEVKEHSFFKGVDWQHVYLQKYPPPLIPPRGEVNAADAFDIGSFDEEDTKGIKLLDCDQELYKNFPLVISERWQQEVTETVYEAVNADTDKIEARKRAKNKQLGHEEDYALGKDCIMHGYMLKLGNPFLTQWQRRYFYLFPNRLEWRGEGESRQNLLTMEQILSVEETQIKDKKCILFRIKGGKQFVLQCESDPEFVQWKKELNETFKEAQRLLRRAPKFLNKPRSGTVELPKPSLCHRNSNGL
UniProt P29067: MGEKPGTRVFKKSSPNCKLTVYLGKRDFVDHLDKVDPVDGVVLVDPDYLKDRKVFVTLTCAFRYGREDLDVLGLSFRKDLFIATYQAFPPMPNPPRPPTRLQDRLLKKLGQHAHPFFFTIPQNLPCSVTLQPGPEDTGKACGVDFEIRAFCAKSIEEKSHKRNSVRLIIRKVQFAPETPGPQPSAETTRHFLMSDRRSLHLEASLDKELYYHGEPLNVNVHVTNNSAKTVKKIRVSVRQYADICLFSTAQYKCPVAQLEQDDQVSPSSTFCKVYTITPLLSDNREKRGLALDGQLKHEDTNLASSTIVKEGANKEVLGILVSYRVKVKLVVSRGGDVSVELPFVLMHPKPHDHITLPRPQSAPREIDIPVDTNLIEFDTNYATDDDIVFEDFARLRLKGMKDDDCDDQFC

What was measured:
[1] = target: CB2R-L133I–BirA-R118G (human) (UniProt P34972); experiment: proximity labelling; CB2R–BirA-R118G expressed in HEK 293T; 10 μM JWH-133 and biotin; biotinylated endogenous proteins pulled down, immunoblot for GRK2 and GRK3, densities normalised to streptavidin staining
[2] = target: CB2R-Q63R–BirA-R118G (human) (UniProt P34972); experiment: as above
[3] = target: CB2R–BirA-R118G (wild-type human CB2R fused to promiscuous biotin ligase) (human) (UniProt P34972); experiment: as above
[4] = target: CB2R-L133I–BirA-R118G (human) (UniProt P34972); experiment: proximity labelling; CB2R–BirA-R118G and β-arrestin2–Venus co-expressed in HEK 293T; 10 μM JWH-133 and 100 μM biotin for 20–24 h; RIPA lysate, biotinylated proteins pulled down on NeutrAvidin-agarose, high-salt washes; Venus fluorescence on the beads
[5] = target: CB2R-Q63R–BirA-R118G (human) (UniProt P34972); experiment: as above
[6] = target: CB2R–BirA-R118G (wild-type human CB2R fused to promiscuous biotin ligase) (human) (UniProt P34972); experiment: as above

binding [1] | binding [2] | binding [3] | binding [4] | binding [5] | binding [6] | Substance
binds | binds | binds | – | – | – | GRK2 (G protein-coupled receptor kinase 2), endogenous (from UniProt P25098 1-689) (enzyme)
binds | binds | binds | – | – | – | GRK3 (G protein-coupled receptor kinase 3), endogenous (from UniProt P35626 1-688) (enzyme)
– | – | – | binds | binds | binds | β-arrestin2–Venus (from UniProt P29067 1-410)
